The list shows only some results of the screen, not a fair sample: it gathers tests that were run many times, whatever their T/C, doses with no T/C, and many T/C values between a quarter and a half above the control. Other doses and runs of a compound stand elsewhere. T/C: endpoint of the treated group in % of that of the vehicle group. Some doses have a count of surviving animals in place of a T/C: the source files T/C as zero there, which appears to mark a toxic dose or a test without result, not a measured value. Some survivor counts are full or nearly so, which does not show that the dose was tolerated: survival well below the control is almost never listed, so the zero probably covers shortened survival too. Counts of survivors are from the toxicity check (mostly the fifth day) where no day follows; animals may have died later. Schedules are NCI's codes, taken here to give the interval after Q, in days (D) or hours (H), and the number of doses after X. Some entries hold several experiments; the values are given in rising order. For survival time, this PubChem deposit counts one and a half times the control or more as active, and values a quarter to a half above the control carry no call in these data; other NCI protocols may use other cut-offs. Some T/C values are followed by the survivors on the day toxicity was checked, most often the fifth; without a count, all were alive then.
Tested on: P388 leukemia ip, CD2F1 mice, survival T/C
Experiment: NCI In Vivo Anticancer Drug Screen. Data for tumor model P388 Leukemia (intraperitoneal) in CD2F1 (CDF1) mice
Settings: T/C endpoint: median survival time, higher T/C = longer survival
[1] = dose: 12.5 mg/kg/injection, schedule: Q01DX005 (ip), vehicle: Klucel (hydroxypropylcellulose) (HPC)
[2] = dose: 25.0 mg/kg/injection, schedule: Q01DX005 (ip), vehicle: Klucel (hydroxypropylcellulose) (HPC)
[3] = dose: 50.0 mg/kg/injection, schedule: Q01DX005 (ip), vehicle: Klucel (hydroxypropylcellulose) (HPC)
[4] = dose: 100.0 mg/kg/injection, schedule: Q01DX005 (ip), vehicle: Klucel (hydroxypropylcellulose) (HPC)
[5] = dose: 200.0 mg/kg/injection, schedule: Q01DX005 (ip), vehicle: Klucel (hydroxypropylcellulose) (HPC)
[6] = dose: 50.0 mg/kg/injection, schedule: Q01DX009 (ip), vehicle: saline
[7] = dose: 100.0 mg/kg/injection, schedule: Q01DX009 (ip), vehicle: saline
[8] = dose: 200.0 mg/kg/injection, schedule: Q01DX009 (ip), vehicle: saline
[9] = dose: 100.0 mg/kg/injection, schedule: Q01DX009 (ip), vehicle: saline with Tween-80
[10] = dose: 25.0 mg/kg/injection, schedule: Q01DX009 (ip), vehicle: saline
[11] = dose: 25.0 mg/kg/injection, schedule: Q01DX009 (ip), vehicle: water
[12] = dose: 200.0 mg/kg/injection, schedule: Q01DX005 (ip), vehicle: saline with Tween-80

**Q.** What does the source list for OCCN1CCN(CC/C=C2/c3ccccc3Sc3ccc(Cl)cc32)CC1?
**A.** survivor count (dose: 12.5 mg/kg/injection, schedule: Q01DX005 (ip), vehicle: saline): 1 of 6; T/C (dose: 22.0 mg/kg/injection, schedule: Q04DX003 (ip), vehicle: saline): 145 % of control; survivor count (dose: 25.0 mg/kg/injection, schedule: Q01DX005 (ip), vehicle: saline): 6 of 6; survivor count (dose: 50.0 mg/kg/injection, schedule: Q01DX005 (ip), vehicle: saline): 0 of 6; T/C (dose: 50.0 mg/kg/injection, schedule: Q04DX003 (ip), vehicle: saline): 127 % of control; survivor count (dose: 100.0 mg/kg/injection, schedule: Q01DX005 (ip), vehicle: saline): 0 of 6; survivor count (dose: 200.0 mg/kg/injection, schedule: Q01DX005 (ip), vehicle: saline): 0 of 6

**Q.** Which results are given for [N-]=[N+]=C1N=Nc2ccccc21?
**A.** survivor count (dose: 6.25 mg/kg/injection, schedule: Q01DX005 (ip), vehicle: Klucel (hydroxypropylcellulose) (HPC)): 4 of 6; survivor count [1]: 1 of 6; survivor count [2]: 0 of 6; survivor count [3]: 0 of 6; survivor count [4]: 0 of 6; survivor count [5]: 0 of 6

**Q.** What does the source list for Cc1cc(C)c[n+]([O-])c1?
**A.** survivor count [6]: 6 of 6; survivor count [7]: 6 of 6; survivor count [8]: 5 of 6

**Q.** For O=C(NCc1ccccc1)N1CCN(c2ccccc2)C1=O, which T/C [9] is on record?
**A.** 125 % of control

**Q.** What about the survivor count [9] of the same molecule?
**A.** 6 of 6

**Q.** Which survivor count (dose: 120.0 mg/kg/injection, schedule: Q01DX005 (ip), vehicle: saline) does the source give for CN(C)c1nc(=O)c2ccccc2o1 here?
**A.** 0 of 6

**Q.** What about the survivor count (dose: 240.0 mg/kg/injection, schedule: Q01DX005 (ip), vehicle: saline) of the same molecule?
**A.** 0 of 6

**Q.** Which results are given for CC(C)C1NC(=O)C(N)C(C)OC(=O)C(C(C)C)N(C)C(=O)CN(C)C(=O)C2CCCN2C1=O (stereo unspecified) (tested in a mixture with another compound)?
**A.** survivor count (dose: 375.0 micrograms/kg/injection, schedule: Q01DX009 (ip), vehicle: other): 6 of 6; survivor count (dose: 500.0 micrograms/kg/injection, schedule: Q01DX009 (ip), vehicle: water): 6 of 6

**Q.** Cn1ncc2c(NCc3ccccc3)ncnc21 was tested. Which survivor count (dose: 50.0 mg/kg/injection, schedule: Q01DX009 (ip), vehicle: saline with Tween-80) did it give?
**A.** 6 of 6

**Q.** And the survivor count [9]?
**A.** 6 of 6

**Q.** What about the survivor count (dose: 200.0 mg/kg/injection, schedule: Q01DX009 (ip), vehicle: saline with Tween-80) of the same molecule?
**A.** 3 of 6

**Q.** With Cc1ccc(NC(=S)SCc2ccc(Cl)cc2)cc1Br as the molecule, how does the T/C (dose: 100.0 mg/kg/injection, schedule: Q01DX009 (ip), vehicle: Klucel (hydroxypropylcellulose) (HPC)) read?
**A.** 125 % of control

**Q.** What about the T/C (dose: 400.0 mg/kg/injection, schedule: Q01DX009 (ip), vehicle: Klucel (hydroxypropylcellulose) (HPC)) of the same molecule?
**A.** 125 % of control

**Q.** Which results are given for CC(C)C/C=C/CCCCCCCCCC(=O)NCC(=O)NC1C(C)OC(Nc2ncnc3nc[nH]c23)C(O)C1O (stereo unspecified)?
**A.** T/C (dose: 0.25 mg/kg/injection, schedule: Q01DX009 (ip), vehicle: water): 137 % of control; T/C (dose: 2.0 mg/kg/injection, schedule: Q01DX009 (ip), vehicle: water): 128 and 133 % of control; T/C (dose: 4.0 mg/kg/injection, schedule: Q01DX009 (ip), vehicle: water): 148 % of control; T/C (dose: 16.0 mg/kg/injection, schedule: Q01DX009 (ip), vehicle: water): 143 % of control

**Q.** With CC(C)NC(=O)OCc1c(COC(=O)NC(C)C)c(-c2ccc(Cl)cc2)n2c1CCC2 as the molecule, how does the T/C (dose: 25.0 mg/kg/injection, schedule: Q01DX005 (ip), vehicle: distilled water + Tween-80) read?
**A.** 136 % of control

**Q.** What about the survivor count (dose: 100.0 mg/kg/injection, schedule: Q01DX005 (ip), vehicle: distilled water + Tween-80) of the same molecule?
**A.** 6 of 6

**Q.** And the survivor count (dose: 200.0 mg/kg/injection, schedule: Q01DX005 (ip), vehicle: distilled water + Tween-80)?
**A.** 5 of 6

**Q.** O=NN1CCNC1=O was tested. Which T/C (dose: 3.0 mg/kg/injection, schedule: Q04DX003 (ip), vehicle: saline) did it give?
**A.** 136 % of control

**Q.** What about the T/C (dose: 6.0 mg/kg/injection, schedule: Q04DX003 (ip), vehicle: saline) of the same molecule?
**A.** 145 % of control

**Q.** And the T/C (dose: 6.25 mg/kg/injection, schedule: Q04DX003 (ip), vehicle: saline)?
**A.** 145 % of control

**Q.** And the survivor count [10]?
**A.** 6 of 6

**Q.** And the survivor count (dose: 37.5 mg/kg/injection, schedule: Q04DX003 (ip), vehicle: saline)?
**A.** 5 of 6

**Q.** And the survivor count (dose: 100.0 mg/kg/injection, schedule: Q04DX003 (ip), vehicle: saline with Tween-80)?
**A.** 3 of 6

**Q.** What about the survivor count (dose: 200.0 mg/kg/injection, schedule: Q04DX003 (ip), vehicle: saline with Tween-80) of the same molecule?
**A.** 0 of 6

**Q.** And the survivor count (dose: 400.0 mg/kg/injection, schedule: Q04DX003 (ip), vehicle: saline with Tween-80)?
**A.** 0 of 6

**Q.** With C=C1C(C(=O)OC)=NNc2c(C(N)=O)ncn21 as the molecule, how does the survivor count (dose: 400.0 mg/kg/injection, schedule: Q01DX001 (ip), vehicle: Klucel (hydroxypropylcellulose) (HPC)) read?
**A.** 1 of 6

**Q.** How did the T/C [11] turn out when CS(=O)(=O)O/C=C1/CCOC1=O was run?
**A.** 126 % of control

**Q.** What about the T/C (dose: 50.0 mg/kg/injection, schedule: Q01DX009 (ip), vehicle: water) of the same molecule?
**A.** 125 [5 of 6 alive] and 132 % of control

**Q.** And the survivor count (dose: 100.0 mg/kg/injection, schedule: Q01DX009 (ip), vehicle: water)?
**A.** 1 of 6

**Q.** And the survivor count (dose: 200.0 mg/kg/injection, schedule: Q01DX009 (ip), vehicle: water)?
**A.** 0 of 6

**Q.** S=c1nc[nH]c2c1ncn2C1C=CC=CC=C1 was tested. Which survivor count [12] did it give?
**A.** 1 of 6

**Q.** Which survivor count [12] does the source give for CCC(=N\N=C(N)N)/C(C)=N\N=C(N)N here?
**A.** 0 of 6

**Q.** What does the source list for O=NNc1ccc(-c2ccc([N+](=O)[O-])cc2)cn1?
**A.** T/C (dose: 1.56 mg/kg/injection, schedule: Q01DX009 (ip), vehicle: saline): 144 % of control; T/C (dose: 3.12 mg/kg/injection, schedule: Q01DX009 (ip), vehicle: saline): 138 % of control [5 of 6 alive]; survivor count (dose: 6.25 mg/kg/injection, schedule: Q01DX009 (ip), vehicle: saline): 5 of 6; survivor count (dose: 12.5 mg/kg/injection, schedule: Q01DX009 (ip), vehicle: saline): 3 of 6 and 5 of 6; survivor count [10]: 1 of 6; survivor count [6]: 0 of 6

**Q.** With N#C/C(=C\c1ccc([N+](=O)[O-])o1)[N+](=O)[O-] as the molecule, how does the survivor count [8] read?
**A.** 0 of 6

**Q.** Which survivor count (dose: 100.0 mg/kg/injection, schedule: Q01DX001 (ip), vehicle: saline with Tween-80) does the source give for Cn1c(=O)c2nc(-c3ccc(Cl)c(Cl)c3)c(-c3ccc(Cl)c(Cl)c3)nc2n(C)c1=O here?
**A.** 6 of 6

**Q.** For O=C(O)Cc1cccc(S(=O)(=O)F)c1, which survivor count (dose: 240.0 mg/kg/injection, schedule: Q01DX005 (ip), vehicle: saline with Tween-80) is on record?
**A.** 2 of 6

**Q.** Which survivor count [7] does the source give for N=C(N)SCc1nc(-c2ccc(Cl)cc2)no1 here?
**A.** 4 of 6

**Q.** What about the survivor count [8] of the same molecule?
**A.** 4 of 6

**Q.** With Nc1ncnc2[nH]c(=S)[nH]c12 as the molecule, how does the survivor count [1] read?
**A.** 4 of 5

**Q.** And the survivor count [2]?
**A.** 0 of 5

**Q.** What about the survivor count [3] of the same molecule?
**A.** 0 of 5

**Q.** What about the survivor count [4] of the same molecule?
**A.** 0 of 5

**Q.** And the survivor count [5]?
**A.** 0 of 5

**Q.** What does the source list for CCOC(=O)/C=C/C(=O)NN?
**A.** survivor count (dose: 12.5 mg/kg/injection, schedule: Q01DX009 (ip), vehicle: water): 6 of 6; survivor count [11]: 6 of 6; survivor count (dose: 400.0 mg/kg/injection, schedule: Q01DX009 (ip), vehicle: water): 4 of 6

**Q.** Which results are given for C=C(Br)C(=NC(C)(C)C)Nc1ccc(Cl)cc1?
**A.** survivor count [2]: 0 of 5; survivor count [3]: 3 of 5; survivor count [4]: 1 of 5; survivor count [5]: 0 of 5

**Q.** CN(C)CCC(OC(=O)C(c1ccccc1)c1ccccc1)c1ccccc1 (stereo unspecified) was tested. Which survivor count [12] did it give?
**A.** 0 of 5

**Q.** What does the source list for C/C(=N\NC(=S)N(C)C)c1ncccn1?
**A.** survivor count (dose: 100.0 mg/kg/injection, schedule: Q04DX003 (ip), vehicle: Klucel (hydroxypropylcellulose) (HPC)): 1 of 6; survivor count (dose: 200.0 mg/kg/injection, schedule: Q04DX003 (ip), vehicle: Klucel (hydroxypropylcellulose) (HPC)): 0 of 6; survivor count (dose: 400.0 mg/kg/injection, schedule: Q04DX003 (ip), vehicle: Klucel (hydroxypropylcellulose) (HPC)): 0 of 6
